Chains of the proteins cited; added tags and fusions are not shown. Residues count along the entry.
UniProt Q06481, residues 32-763: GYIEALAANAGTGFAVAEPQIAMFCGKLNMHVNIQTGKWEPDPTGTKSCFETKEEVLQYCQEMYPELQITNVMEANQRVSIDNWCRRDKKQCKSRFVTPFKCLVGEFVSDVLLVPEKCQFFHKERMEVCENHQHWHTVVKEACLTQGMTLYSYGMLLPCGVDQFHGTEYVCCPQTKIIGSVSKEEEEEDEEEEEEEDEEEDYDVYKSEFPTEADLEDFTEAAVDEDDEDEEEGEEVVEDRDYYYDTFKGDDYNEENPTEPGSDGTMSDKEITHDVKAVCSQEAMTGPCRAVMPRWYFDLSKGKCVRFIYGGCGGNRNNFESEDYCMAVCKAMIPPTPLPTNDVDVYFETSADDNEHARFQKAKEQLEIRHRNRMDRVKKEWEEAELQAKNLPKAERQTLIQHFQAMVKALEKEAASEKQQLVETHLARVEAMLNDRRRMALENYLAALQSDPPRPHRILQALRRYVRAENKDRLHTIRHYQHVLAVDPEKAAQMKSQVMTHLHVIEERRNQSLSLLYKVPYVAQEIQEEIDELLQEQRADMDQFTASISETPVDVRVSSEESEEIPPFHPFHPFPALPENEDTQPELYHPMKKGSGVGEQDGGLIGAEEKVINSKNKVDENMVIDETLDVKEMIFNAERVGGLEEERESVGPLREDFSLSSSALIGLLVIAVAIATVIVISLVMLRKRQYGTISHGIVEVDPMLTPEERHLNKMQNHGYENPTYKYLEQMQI
UniProt P11912, residues 33-226: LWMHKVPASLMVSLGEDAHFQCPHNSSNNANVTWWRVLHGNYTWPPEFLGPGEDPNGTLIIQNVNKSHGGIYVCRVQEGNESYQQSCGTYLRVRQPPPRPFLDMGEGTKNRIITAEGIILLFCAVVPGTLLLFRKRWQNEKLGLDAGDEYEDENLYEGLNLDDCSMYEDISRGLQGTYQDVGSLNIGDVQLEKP
UniProt Q06187: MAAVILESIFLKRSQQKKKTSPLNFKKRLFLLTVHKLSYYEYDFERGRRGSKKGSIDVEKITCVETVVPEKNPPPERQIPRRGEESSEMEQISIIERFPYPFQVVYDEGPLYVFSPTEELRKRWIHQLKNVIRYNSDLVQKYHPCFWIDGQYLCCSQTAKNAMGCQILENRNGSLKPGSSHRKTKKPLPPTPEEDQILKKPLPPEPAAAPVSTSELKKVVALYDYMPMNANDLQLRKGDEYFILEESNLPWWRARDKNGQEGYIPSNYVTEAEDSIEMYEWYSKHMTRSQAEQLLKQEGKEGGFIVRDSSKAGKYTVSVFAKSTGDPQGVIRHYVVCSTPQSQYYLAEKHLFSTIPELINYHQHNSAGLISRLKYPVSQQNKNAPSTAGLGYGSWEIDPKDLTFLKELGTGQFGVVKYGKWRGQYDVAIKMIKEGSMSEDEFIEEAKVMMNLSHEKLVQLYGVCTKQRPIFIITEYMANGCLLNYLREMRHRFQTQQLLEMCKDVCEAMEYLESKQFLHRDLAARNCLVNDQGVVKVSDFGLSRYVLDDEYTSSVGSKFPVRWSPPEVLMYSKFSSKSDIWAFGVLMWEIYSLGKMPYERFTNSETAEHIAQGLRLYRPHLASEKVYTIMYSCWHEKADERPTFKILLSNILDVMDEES
UniProt P20273, residues 20-847: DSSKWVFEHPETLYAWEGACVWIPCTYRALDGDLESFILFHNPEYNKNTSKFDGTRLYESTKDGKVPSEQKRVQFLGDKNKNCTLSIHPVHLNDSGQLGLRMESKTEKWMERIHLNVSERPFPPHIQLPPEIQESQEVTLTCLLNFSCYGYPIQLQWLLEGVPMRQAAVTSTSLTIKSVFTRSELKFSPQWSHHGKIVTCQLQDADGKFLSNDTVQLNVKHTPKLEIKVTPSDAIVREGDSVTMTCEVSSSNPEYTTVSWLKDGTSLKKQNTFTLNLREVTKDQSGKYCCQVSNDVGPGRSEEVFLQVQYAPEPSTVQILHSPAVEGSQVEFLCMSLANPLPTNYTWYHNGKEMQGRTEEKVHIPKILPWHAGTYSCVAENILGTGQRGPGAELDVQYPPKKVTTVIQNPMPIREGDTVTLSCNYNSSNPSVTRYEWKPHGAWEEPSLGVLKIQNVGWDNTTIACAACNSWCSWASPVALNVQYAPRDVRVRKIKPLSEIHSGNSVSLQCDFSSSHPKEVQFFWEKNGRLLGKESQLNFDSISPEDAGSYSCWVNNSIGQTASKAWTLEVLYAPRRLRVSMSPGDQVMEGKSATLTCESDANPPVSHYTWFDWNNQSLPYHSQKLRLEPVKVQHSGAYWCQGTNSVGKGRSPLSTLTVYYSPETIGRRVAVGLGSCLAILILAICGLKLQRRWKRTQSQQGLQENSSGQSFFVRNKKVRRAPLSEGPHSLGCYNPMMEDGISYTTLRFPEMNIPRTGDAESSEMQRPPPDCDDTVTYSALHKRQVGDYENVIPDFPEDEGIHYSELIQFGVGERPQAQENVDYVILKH

According to publication PMC8473724:

The substances below were run against T1, FLAG-PTP1B D181A-Y46F substrate trapping mutant (full-length) (UniProt P18031) (assay: affinity purification with mass spectrometry; SILAC substrate trapping: anti-FLAG co-IP from PTP1B KO Ramos cells with empty vector, FLAG-PTP1B-D181A-Y46F or its Δ406-435 form; elution with FLAG peptide, SDS-PAGE, in-gel digestion, LC-MS; hits: mean SILAC ratio >= 2 and P < 0.05 (n = 3)).
T1 sequence: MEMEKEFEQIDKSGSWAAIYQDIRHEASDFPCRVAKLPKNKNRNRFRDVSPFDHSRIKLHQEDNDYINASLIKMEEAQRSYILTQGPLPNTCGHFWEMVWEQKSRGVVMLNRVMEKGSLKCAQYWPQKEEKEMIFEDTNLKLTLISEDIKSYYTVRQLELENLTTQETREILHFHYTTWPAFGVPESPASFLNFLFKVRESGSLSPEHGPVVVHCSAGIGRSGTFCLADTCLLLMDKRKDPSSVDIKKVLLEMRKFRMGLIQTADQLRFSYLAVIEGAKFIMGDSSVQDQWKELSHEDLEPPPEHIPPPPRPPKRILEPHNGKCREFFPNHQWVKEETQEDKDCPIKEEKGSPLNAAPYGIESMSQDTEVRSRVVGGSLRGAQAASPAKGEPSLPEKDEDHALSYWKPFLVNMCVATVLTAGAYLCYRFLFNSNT

binding, binds:
amyloid-like protein 2 (APLP2) (from UniProt Q06481 32-763)
Igα (CD79A), BCR signaling subunit α chain (from UniProt P11912 33-226) (receptor)
Bruton tyrosine kinase (BTK) (from UniProt Q06187 1-659) (enzyme)
CD22 (cluster of differentiation-22), endogenous (from UniProt P20273 20-847) (receptor)

These are yes or no findings as the source states them, for the method shown. In cells and extracts the contact can be indirect. Here binding means that the protein was enriched with, or labelled near, the bait; the list need not be complete. Where a sequence is shown, tags or fusion partners need not be part of it.
